Negatives hold for the conditions tested. At least one verdict rests on a figure or table, not on a statement of the authors. For some assays here: Where a protein sequence is shown, tags need not be part of it. For some assays here: For at least one entry, the source does not settle the construct or the ends of the probe.
How the values were obtained:
Assay in all cases: ELISA
Conditions in all cases: protein immobilized; ELISA: PBS pH 7.4, 5 mM MgCl2, 10 mM KCl, 0.01% Tween 20, 20 min (temperature not stated); commercial protein; label: biotin (ELISA); single-stranded DNA
[1] = molecular target: conalbumin (UniProt P02789)
[2] = tested on: carbonic anhydrase
[3] = molecular target: subtilisin (Carlsberg) (UniProt P00780)
[4] = molecular target: pancreatic elastase (Sus scrofa) (UniProt P00772)
[5] = molecular target: T1, ovalbumin (UniProt P01012)
T1 sequence (looked up, limits assumed): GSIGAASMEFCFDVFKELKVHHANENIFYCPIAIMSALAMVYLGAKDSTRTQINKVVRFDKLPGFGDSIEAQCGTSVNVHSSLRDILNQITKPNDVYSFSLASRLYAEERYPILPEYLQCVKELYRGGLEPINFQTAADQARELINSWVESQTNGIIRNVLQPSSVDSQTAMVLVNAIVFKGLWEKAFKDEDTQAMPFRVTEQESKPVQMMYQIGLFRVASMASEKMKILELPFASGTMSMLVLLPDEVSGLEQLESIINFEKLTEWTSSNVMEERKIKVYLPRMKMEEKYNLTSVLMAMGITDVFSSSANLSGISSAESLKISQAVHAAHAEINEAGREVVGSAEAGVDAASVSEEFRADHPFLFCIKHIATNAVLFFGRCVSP

Sequences of proteins named here, by UniProt entry; tags and fusion partners are left off. A change or cut given only in a name is not applied to a line headed by its entry. Residues count along the entry.
UniProt P02789, 20-705: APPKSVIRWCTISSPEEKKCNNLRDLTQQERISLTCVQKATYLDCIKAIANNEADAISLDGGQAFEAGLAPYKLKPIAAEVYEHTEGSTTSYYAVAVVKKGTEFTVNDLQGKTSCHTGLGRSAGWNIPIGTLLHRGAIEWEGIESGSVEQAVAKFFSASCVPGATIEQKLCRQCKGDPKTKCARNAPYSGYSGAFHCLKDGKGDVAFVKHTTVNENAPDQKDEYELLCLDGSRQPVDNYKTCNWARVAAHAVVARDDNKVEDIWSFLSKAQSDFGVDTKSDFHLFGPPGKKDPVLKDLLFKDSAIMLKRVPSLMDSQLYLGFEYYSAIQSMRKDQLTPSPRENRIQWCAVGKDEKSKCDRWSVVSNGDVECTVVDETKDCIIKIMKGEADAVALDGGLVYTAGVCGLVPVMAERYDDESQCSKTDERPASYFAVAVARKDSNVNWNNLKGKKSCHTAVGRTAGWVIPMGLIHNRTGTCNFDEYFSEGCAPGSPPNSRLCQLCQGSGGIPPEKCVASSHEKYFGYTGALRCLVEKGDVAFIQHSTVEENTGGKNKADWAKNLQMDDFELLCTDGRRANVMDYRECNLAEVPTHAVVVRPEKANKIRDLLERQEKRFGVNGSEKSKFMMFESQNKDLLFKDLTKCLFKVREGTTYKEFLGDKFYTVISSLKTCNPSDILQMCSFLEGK
UniProt P00780, 106-379: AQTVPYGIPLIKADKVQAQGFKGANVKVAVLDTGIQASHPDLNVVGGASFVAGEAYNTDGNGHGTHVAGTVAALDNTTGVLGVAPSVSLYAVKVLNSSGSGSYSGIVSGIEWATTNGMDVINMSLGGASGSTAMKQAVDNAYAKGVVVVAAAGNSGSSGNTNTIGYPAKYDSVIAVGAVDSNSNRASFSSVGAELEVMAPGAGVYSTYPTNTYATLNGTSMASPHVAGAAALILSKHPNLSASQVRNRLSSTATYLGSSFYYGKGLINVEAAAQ
UniProt P00772, 27-266: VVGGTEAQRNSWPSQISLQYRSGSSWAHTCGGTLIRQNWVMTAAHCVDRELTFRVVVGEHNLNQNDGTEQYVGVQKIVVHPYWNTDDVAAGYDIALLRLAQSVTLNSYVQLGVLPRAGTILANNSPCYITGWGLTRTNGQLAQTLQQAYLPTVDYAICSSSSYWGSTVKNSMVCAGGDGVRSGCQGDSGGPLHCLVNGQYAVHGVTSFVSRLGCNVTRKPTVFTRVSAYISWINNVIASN
UniProt P00760: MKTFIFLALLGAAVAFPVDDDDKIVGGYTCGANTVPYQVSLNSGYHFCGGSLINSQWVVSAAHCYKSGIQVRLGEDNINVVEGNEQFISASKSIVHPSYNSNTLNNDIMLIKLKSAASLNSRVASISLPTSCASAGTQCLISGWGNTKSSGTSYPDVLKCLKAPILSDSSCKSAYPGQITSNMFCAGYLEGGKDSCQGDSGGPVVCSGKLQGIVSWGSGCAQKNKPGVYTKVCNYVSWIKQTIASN

[6] = tested on: ferritin
[7] = molecular target: T2, ribonuclease A (UniProt P61823)
T2 sequence (looked up, limits assumed): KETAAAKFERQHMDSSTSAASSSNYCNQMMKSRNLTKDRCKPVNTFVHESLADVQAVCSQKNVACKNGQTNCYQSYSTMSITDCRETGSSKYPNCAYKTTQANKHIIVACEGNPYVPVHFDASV

[8] = molecular target: trypsin (Bos taurus) (UniProt P00760)

Measured: binding result

CATGCTTCCCCAGGGAGATGAGGACGGGCGTGGGGATGGGTATGGTGCAACTCCCGAGGAACATGCGTCGCAAAC [aptamer E6]
no binding: all assays above
